In the supplement of paper PMC8728848:
The list shows a part of the results.

Legend:
Test in all cases: glycan array binding signal (z-score within array); higher = stronger binding
Conditions in all cases: glycan notation: IUPAC condensed, linker removed
[1] = target: Gal(b1-4)GlcNAc(b1-2)Man(a1-6)[Man(a1-3)]Man(b1-4)GlcNAc(b1-4)GlcNAc
Procedure, shortened: (§1)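 Negative Z-scores can be read as non-binding. The Z-score is calculated within each array and then averaged across arrays of one protein sequence at different concentrations or buffers and across linkers. Arrays, 3228 in all, were curated from the Consortium for Functional Glycomics database and kept only where the protein sequence was available.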

[2] = target: Gal(b1-4)GlcNAc(b1-2)[Gal(b1-4)GlcNAc(b1-4)]Man(a1-3)[Gal(b1-4)GlcNAc(b1-2)Man(a1-6)]Man(b1-4)GlcNAc(b1-4)GlcNAc
Procedure, shortened: as §1

[3] = target: Gal(b1-4)GlcNAc(b1-2)[Gal(b1-4)GlcNAc(b1-4)]Man(a1-3)[Gal(b1-4)GlcNAc(b1-2)[Gal(b1-4)GlcNAc(b1-6)]Man(a1-6)]Man(b1-4)GlcNAc(b1-4)GlcNAc
Procedure, shortened: as §1

[4] = target: Gal(b1-4)GlcNAc(b1-2)[Gal(b1-4)GlcNAc(b1-4)]Man(a1-3)[GlcNAc(b1-4)][Gal(b1-4)GlcNAc(b1-2)Man(a1-6)]Man(b1-4)GlcNAc(b1-4)GlcNAc
Procedure, shortened: as §1

[5] = target: Gal(b1-4)GlcNAc(b1-2)[Gal(b1-4)GlcNAc(b1-4)]Man(a1-3)[GlcNAc(b1-4)][Gal(b1-4)GlcNAc(b1-2)[Gal(b1-4)GlcNAc(b1-6)]Man(a1-6)]Man(b1-4)GlcNAc(b1-4)GlcNAc
Procedure, shortened: as §1

[6] = target: Gal(b1-4)GlcNAc(b1-2)[Gal(b1-4)GlcNAc(b1-6)]Man(a1-6)[Gal(b1-4)GlcNAc(b1-2)Man(a1-3)]Man(b1-4)GlcNAc(b1-4)GlcNAc
Procedure, shortened: as §1

[7] = target: Gal(b1-4)GlcNAc(b1-2)[Gal(b1-4)GlcNAc(b1-6)]Man(a1-6)[Gal(b1-4)GlcNAc(b1-2)Man(a1-3)]Man(b1-4)GlcNAc(b1-4)[Fuc(a1-6)]GlcNAc
Procedure, shortened: as §1

[8] = target: Gal(b1-4)GlcNAc(b1-2)[Gal(b1-4)GlcNAc(b1-6)]Man(a1-6)[GlcNAc(b1-4)][Gal(b1-4)GlcNAc(b1-2)Man(a1-3)]Man(b1-4)GlcNAc(b1-4)GlcNAc
Procedure, shortened: as §1

[9] = target: Gal(b1-4)GlcNAc(b1-2)[Gal(b1-4)GlcNAc(b1-6)]Man(a1-6)[GlcNAc(b1-4)][Gal(b1-4)GlcNAc(b1-2)[Gal(b1-4)GlcNAc(b1-4)]Man(a1-3)]Man(b1-4)GlcNAc(b1-4)[Fuc(a1-6)]GlcNAc
Procedure, shortened: as §1

[10] = target: Gal(b1-4)GlcNAc(b1-3)Gal(b1-3)GalNAc
Procedure, shortened: as §1

[11] = target: Gal(b1-4)GlcNAc(b1-3)Gal(b1-3)GlcNAc
Procedure, shortened: as §1

[12] = target: Gal(b1-4)GlcNAc(b1-3)Gal(b1-4)Glc
Procedure, shortened: as §1

[13] = target: Gal(b1-4)GlcNAc(b1-3)Gal(b1-4)GlcNAc
Procedure, shortened: as §1

[14] = target: Gal(b1-4)GlcNAc(b1-3)Gal(b1-4)GlcNAc(b1-2)Man(a1-3)[Gal(b1-4)GlcNAc(b1-3)Gal(b1-4)GlcNAc(b1-2)Man(a1-6)]Man(b1-4)GlcNAc(b1-4)GlcNAc
Procedure, shortened: as §1

[15] = target: Gal(b1-4)GlcNAc(b1-3)Gal(b1-4)GlcNAc(b1-2)Man(a1-3)[Gal(b1-4)GlcNAc(b1-3)Gal(b1-4)GlcNAc(b1-2)Man(a1-6)]Man(b1-4)GlcNAc(b1-4)[Fuc(a1-6)]GlcNAc
Procedure, shortened: as §1

[16] = target: Gal(b1-4)GlcNAc(b1-3)Gal(b1-4)GlcNAc(b1-2)[Gal(b1-4)GlcNAc(b1-3)Gal(b1-4)GlcNAc(b1-6)]Man(a1-6)[Gal(b1-4)GlcNAc(b1-3)Gal(b1-4)GlcNAc(b1-2)Man(a1-3)]Man(b1-4)GlcNAc(b1-4)GlcNAc
Procedure, shortened: as §1

[17] = target: Gal(b1-4)GlcNAc(b1-3)Gal(b1-4)GlcNAc(b1-2)[Gal(b1-4)GlcNAc(b1-3)Gal(b1-4)GlcNAc(b1-6)]Man(a1-6)[Gal(b1-4)GlcNAc(b1-3)Gal(b1-4)GlcNAc(b1-2)Man(a1-3)]Man(b1-4)GlcNAc(b1-4)[Fuc(a1-6)]GlcNAc
Procedure, shortened: as §1

[18] = target: Gal(b1-4)GlcNAc(b1-3)Gal(b1-4)GlcNAc(b1-3)Gal(b1-4)GlcNAc
Procedure, shortened: as §1

B1: FimA (Actinomyces oris) (protein)
chain: MHHHHHHSSGVDLGTENLYFQSNAETPNYGNIKTDATGSLVIHKHLTGGGKDIGTPTGTAQNADDKGPAVEGVVFTAYPITDINLKDPAGWDTISNLSRTGVPDSACANPAAPTLGAHQFGTPKVSPATTKEGLATITEMPVQAYLVCETTTPGDIVQKAKPFVVTIPHPNTAAGADGQWIYDVNVYPKNEAIDVDKTIQAQKLNGYGVGSLIKFPVESTAPTLDAKSFYKYFQLKDTLDERLSEVTATDVSLEGTPLQPTDYKVETKQQTVTVTFTAEGLKKIKAAPGKKVSAVFQGKVTKAGNGAITNRAQVISDTLYAEQPPTPETPPTDPENPPTSDEVISRWGDLSIKKVDTHQQGQTKAGLQGAQFQLYKAKNAYANTCSNEKEGAPIAINGQTTLTTDAQGAIDIKGLFISDSIDGADRDNQVNAMERCYVLVETKAPAGYVLPAGNGAATPVKVKAGEETTDNVTVENTKQSVPGLPLTG
Which results are given for B1?
glycan array binding signal (z-score) [1]: 0.34; glycan array binding signal (z-score) [2]: 0.629; glycan array binding signal (z-score) [3]: -0.169; glycan array binding signal (z-score) [4]: -0.533; glycan array binding signal (z-score) [5]: -0.726; glycan array binding signal (z-score) [6]: -0.384; glycan array binding signal (z-score) [7]: -0.582; glycan array binding signal (z-score) [8]: -0.55; glycan array binding signal (z-score) [9]: -0.615; glycan array binding signal (z-score) [10]: -0.855; glycan array binding signal (z-score) [11]: -0.484; glycan array binding signal (z-score) [12]: -0.167; glycan array binding signal (z-score) [13]: 0.161; glycan array binding signal (z-score) [14]: 0.035; glycan array binding signal (z-score) [15]: 0.503; glycan array binding signal (z-score) [16]: 1.04; glycan array binding signal (z-score) [17]: 0.194; glycan array binding signal (z-score) [18]: -0.337
